Data: PMC4627318
No constants are given. Whether binding was seen depends on the method and setting. In cells and extracts the contact can be indirect. Some entries that bind do so weakly or less than the wild type.

By UniProt entry, the sequences of proteins in these tests, tags left out.
UniProt O60260: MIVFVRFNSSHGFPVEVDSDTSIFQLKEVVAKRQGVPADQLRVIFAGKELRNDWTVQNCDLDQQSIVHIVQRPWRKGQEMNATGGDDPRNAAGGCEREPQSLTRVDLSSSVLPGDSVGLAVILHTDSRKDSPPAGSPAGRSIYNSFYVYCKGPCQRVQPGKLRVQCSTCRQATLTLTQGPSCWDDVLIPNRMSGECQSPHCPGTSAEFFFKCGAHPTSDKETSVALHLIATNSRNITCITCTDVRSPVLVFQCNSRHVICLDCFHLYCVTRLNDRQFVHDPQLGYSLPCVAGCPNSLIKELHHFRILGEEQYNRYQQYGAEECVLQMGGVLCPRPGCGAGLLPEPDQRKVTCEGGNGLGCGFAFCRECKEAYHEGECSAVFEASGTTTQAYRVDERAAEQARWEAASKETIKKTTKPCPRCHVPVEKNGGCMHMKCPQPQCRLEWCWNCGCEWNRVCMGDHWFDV

How the values were obtained:
[1] = target: endogenous p53 (human (endogenous in MCF7)) (UniProt P04637); assay: co-IP
[2] = target: Parkin (human (endogenous in MDA-MB-157 and MCF7)) (UniProt O60260); assay: co-IP

| binding [1] | binding [2] | Substance |
| --- | --- | --- |
| binds | – | Parkin (from UniProt O60260 1-465) |
| – | binds | endogenous p53 (from UniProt P04637 1-393) |
